US10759783B2, “Biaryl inhibitors of Bruton'S tyrosine kinase” (BIOGEN MA INC., priority 2013, dated 2020)
Structures were worked out from names or drawings and are uncertain.

Sequences of proteins named here, by UniProt entry; tags and fusion partners are left off.
UniProt Q06187, whole entry: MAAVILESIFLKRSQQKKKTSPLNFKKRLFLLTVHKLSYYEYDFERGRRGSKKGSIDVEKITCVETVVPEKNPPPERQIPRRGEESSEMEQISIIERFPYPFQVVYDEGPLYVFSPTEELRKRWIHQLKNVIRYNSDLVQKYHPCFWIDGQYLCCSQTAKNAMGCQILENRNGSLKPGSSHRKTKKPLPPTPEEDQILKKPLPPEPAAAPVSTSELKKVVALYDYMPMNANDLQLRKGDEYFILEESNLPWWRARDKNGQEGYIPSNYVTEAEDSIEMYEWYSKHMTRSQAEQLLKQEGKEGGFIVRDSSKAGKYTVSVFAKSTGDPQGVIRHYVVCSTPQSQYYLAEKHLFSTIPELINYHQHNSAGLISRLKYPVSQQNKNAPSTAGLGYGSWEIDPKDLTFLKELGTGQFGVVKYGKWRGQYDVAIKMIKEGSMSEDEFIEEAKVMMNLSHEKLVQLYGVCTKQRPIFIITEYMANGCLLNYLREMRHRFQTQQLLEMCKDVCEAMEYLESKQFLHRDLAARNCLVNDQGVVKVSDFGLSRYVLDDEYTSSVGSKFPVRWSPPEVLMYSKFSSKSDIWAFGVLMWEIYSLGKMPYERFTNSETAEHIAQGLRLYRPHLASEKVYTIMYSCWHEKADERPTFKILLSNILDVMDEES

Tests used:
[1] = biological target: BTK enzyme (Homo sapiens, UniProt Q06187); assay: In vitro BTK kinase assay: BTK-POLYGAT-LS assay; assay type: biochemical; details: read-out: IC50 (10uMATP), ATP 10 μM
[2] = biological target: BTK (phospho-BTK) in human whole blood (Homo sapiens, UniProt Q06187); assay: In vitro PD assay in human whole blood (pBTK assay); details: read-out: pBTK IC50, 37° C. for 30 min

- IC50 [1]: < 10 nM
- IC50 [2]: < 500 nM
SMILES: Cc1cc(-c2ccnc(Nc3cnn(C4CN(C)C4)c3)n2)ccc1CN1CCN(CC(C)C)CC1=O
